These are yes or no findings as the source states them, for the method shown. Binding can be weak; no strength is given. Where a sequence is shown, tags or fusion partners need not be part of it. For some assays here: In cells and extracts the contact can be indirect.
Key:
[1] = biological target: T1, MBP-IPD3 (M. truncatula) (UniProt A7TUE1); experiment: pull-down; MBP fusion on amylose resin captures purified HIS-tagged MtDELLA; western blot with anti-MBP and anti-HIS; both purified
T1 sequence: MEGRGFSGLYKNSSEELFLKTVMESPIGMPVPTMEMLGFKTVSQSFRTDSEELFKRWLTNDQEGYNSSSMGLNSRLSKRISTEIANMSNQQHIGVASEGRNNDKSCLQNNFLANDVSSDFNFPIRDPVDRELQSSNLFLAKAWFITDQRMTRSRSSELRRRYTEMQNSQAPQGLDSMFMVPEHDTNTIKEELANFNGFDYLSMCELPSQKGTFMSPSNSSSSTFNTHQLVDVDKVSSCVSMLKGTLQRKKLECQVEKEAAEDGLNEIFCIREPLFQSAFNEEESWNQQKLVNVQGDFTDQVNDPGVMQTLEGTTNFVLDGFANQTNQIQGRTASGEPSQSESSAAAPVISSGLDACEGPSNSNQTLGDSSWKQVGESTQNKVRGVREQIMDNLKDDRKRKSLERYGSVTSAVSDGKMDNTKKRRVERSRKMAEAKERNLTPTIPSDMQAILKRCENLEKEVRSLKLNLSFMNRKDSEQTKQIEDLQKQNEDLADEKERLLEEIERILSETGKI

[2] = biological target: T2, IPD3-cYFP (M. truncatula) (UniProt A7TUE1); experiment: split reporter; BiFC with nYFP and cYFP fusions in Arabidopsis mesophyll protoplasts; confocal microscopy
T2 sequence: T1 sequence

Substance	binding [1]	binding [2]
HIS-MtDELLA3 (M. truncatula)	binds	
MtDELLA3-nYFP (M. truncatula)		binds
